Laboratory results: publication PMC2535662, “Identification of COUP-TFII Orphan Nuclear Receptor as a Retinoic Acid–Activated Receptor” (PLoS Biology, 2008)
These are yes or no findings as the source states them, for the method shown. Tags and fused reporters may be left off the sequences shown.

Biological target: T1, 6X His-GST-COUP-TFII LBD fusion protein (human, UniProt P24468 173-414, C174S)
T1 construct: The limits and C174S come from the protein preparation paragraph; also called receptor LBD; source: E. coli BL21 (DE3), purified as a 6X His-GST fusion protein; not shown: 6x Histidine, N-terminal, kept; GST, N-terminal, kept
T1 sequence (looked up): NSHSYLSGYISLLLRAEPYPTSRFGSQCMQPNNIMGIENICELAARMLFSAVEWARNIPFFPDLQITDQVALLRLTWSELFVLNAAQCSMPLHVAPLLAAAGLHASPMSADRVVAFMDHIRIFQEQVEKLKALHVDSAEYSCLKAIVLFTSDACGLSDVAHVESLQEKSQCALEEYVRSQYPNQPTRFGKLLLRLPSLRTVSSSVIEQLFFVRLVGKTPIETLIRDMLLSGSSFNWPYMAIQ
Experiment: AlphaScreen or HTRF; approximately 0.4 μM 6X His-GST receptor LBD and 0.1 μM biotinylated peptide, 20 μg/ml donor and acceptor beads; 50 mM MOPS, 50 mM NaF, 50 mM CHAPS, 0.1 mg/ml bovine serum albumin, pH 7.4; no ligand added; both purified

Q: How did the binding turn out when AENQRGPLESKGHKKLLQLLTSS (biotin (position not given)) [biotinylated SRC3–1 peptide] was run?
A: no binding (condition: in the absence of ligand)
